Data on 1 substance can be found in US20100311639A1.

The chains behind the UniProt entries cited, without tags or fusion partners.
UniProt Q9ESQ5: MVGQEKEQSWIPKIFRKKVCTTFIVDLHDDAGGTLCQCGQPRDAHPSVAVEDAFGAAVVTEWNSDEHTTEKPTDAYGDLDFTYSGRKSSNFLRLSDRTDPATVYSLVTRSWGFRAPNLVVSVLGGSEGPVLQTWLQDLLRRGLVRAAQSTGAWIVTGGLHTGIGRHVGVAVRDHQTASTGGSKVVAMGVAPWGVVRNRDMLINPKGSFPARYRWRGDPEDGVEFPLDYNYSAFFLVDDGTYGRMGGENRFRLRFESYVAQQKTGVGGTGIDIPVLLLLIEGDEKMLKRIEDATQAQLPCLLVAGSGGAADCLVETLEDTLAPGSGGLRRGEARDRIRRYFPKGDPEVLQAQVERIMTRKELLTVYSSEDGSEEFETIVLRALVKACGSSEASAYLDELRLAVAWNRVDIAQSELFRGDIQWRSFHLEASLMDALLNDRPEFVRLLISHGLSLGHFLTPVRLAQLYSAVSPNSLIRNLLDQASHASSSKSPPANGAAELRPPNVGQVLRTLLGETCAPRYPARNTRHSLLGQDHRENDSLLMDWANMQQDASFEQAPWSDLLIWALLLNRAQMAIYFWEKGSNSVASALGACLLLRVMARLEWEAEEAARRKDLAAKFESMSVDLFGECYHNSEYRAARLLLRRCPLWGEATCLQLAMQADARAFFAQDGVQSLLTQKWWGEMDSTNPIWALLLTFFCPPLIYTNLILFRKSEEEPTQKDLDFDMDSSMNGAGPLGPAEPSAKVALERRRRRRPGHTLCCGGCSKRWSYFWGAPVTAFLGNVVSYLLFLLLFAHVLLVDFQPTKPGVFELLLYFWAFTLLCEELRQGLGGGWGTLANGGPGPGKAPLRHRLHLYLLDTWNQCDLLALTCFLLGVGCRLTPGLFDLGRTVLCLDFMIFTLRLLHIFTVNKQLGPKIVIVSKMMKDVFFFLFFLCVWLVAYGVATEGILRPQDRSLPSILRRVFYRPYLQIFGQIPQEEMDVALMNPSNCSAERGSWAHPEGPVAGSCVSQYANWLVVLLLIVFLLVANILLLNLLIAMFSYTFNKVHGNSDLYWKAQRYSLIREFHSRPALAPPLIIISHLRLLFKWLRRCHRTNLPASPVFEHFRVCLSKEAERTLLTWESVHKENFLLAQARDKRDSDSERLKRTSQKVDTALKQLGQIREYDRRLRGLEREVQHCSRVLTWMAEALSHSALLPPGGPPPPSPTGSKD
UniProt Q09429: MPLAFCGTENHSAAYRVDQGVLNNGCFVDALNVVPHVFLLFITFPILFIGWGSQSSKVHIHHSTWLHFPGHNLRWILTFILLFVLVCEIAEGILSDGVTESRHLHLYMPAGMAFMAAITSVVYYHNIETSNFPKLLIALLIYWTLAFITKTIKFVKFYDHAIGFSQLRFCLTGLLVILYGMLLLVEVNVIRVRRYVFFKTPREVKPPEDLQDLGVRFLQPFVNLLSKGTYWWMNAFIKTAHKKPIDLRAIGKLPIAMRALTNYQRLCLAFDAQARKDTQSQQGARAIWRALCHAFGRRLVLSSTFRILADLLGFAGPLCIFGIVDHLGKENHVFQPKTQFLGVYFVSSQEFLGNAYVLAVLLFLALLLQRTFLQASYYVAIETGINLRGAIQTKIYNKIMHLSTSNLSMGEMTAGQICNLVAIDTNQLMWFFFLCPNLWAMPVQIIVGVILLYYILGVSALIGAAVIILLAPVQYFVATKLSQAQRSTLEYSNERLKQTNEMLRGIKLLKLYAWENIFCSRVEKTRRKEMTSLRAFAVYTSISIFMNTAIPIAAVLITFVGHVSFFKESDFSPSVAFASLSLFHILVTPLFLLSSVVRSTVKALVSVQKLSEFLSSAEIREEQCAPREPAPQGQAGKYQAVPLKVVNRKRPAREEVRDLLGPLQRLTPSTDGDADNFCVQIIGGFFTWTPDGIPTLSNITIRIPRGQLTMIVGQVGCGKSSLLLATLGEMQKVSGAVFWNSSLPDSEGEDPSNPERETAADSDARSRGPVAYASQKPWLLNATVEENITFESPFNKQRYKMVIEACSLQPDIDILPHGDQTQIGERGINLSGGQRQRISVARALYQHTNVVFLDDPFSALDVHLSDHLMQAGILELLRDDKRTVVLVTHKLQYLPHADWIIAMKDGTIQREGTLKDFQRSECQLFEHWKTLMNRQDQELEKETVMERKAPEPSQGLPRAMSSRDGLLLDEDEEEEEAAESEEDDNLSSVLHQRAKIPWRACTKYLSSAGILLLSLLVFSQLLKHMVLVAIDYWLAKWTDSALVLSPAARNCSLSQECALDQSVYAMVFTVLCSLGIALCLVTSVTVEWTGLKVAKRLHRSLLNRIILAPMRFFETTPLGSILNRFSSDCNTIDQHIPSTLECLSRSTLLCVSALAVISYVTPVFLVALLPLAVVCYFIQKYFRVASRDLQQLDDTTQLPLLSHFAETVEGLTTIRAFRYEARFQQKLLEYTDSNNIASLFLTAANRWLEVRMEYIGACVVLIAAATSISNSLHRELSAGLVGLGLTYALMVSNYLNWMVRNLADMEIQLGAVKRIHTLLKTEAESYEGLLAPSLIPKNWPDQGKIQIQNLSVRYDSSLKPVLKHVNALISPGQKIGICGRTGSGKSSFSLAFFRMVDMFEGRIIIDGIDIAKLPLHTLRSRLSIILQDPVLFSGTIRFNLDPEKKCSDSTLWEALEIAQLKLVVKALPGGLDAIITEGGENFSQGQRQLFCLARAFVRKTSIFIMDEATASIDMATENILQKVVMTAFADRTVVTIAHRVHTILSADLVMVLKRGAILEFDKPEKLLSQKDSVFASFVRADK

No constants are given. Whether binding was seen depends on the method and setting. Binding seen in cells or lysates may run through a third protein. Some results given as binding are weak or reduced against the parent protein; the word gives no strength.

The target in experiment [1] is transient receptor potential M4 (TRPM4), endogenous, in lysate of injured tissue (rat) (UniProt Q9ESQ5). Briefly: co-immunoprecipitation with SUR1 antibody, Western blot for TRPM4 (figure legend). In general terms: A western blot detects proteins with antibodies after separation by electrophoresis.
Experiment [2] shares this target. Description: co-immunoprecipitation from injured-tissue lysate with anti-SUR1 antibody, Western blot for TRPM4.

Regarding “sulfonylurea receptor 1 (SUR1), endogenous, in lysate of injured tissue (from UniProt Q09429 1-1582)”, the binding entry in experiment [1] and in experiment [2] was “binds” throughout.
